# This is one part of the list.
# By UniProt entry, the sequences of proteins in these tests, tags left out. Where a name states a change or a piece, a line headed by the entry shows the natural chain unless it says otherwise.
# UniProt Q99798: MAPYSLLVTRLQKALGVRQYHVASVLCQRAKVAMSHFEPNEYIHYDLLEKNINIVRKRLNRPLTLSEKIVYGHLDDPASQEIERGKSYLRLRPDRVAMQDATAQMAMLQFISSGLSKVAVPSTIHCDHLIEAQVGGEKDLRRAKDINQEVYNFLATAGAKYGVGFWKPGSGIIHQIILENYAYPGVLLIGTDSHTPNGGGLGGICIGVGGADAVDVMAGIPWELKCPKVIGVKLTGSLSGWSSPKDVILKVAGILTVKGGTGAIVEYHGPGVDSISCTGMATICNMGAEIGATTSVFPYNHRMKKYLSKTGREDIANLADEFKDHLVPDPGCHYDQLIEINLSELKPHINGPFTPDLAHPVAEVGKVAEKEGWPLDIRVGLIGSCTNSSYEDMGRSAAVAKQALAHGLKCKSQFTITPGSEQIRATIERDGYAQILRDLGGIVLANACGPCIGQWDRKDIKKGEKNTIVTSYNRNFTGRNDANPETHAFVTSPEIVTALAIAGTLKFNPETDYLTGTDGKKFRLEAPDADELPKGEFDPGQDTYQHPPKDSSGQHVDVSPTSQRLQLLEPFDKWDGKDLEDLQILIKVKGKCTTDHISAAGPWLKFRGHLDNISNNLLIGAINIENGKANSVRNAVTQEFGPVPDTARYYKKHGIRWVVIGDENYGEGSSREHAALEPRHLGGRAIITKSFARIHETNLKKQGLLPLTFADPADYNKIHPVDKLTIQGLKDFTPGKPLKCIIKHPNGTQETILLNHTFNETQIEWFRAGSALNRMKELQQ
# UniProt Q9BR61: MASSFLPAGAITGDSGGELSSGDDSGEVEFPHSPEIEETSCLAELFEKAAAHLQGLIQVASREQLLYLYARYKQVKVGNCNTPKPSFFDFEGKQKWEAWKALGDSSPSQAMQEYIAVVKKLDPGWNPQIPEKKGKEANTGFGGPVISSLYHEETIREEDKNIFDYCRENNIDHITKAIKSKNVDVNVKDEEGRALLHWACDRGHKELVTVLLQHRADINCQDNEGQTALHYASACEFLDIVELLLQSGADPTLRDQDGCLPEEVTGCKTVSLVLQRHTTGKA
# UniProt P49588, whole entry, looked up: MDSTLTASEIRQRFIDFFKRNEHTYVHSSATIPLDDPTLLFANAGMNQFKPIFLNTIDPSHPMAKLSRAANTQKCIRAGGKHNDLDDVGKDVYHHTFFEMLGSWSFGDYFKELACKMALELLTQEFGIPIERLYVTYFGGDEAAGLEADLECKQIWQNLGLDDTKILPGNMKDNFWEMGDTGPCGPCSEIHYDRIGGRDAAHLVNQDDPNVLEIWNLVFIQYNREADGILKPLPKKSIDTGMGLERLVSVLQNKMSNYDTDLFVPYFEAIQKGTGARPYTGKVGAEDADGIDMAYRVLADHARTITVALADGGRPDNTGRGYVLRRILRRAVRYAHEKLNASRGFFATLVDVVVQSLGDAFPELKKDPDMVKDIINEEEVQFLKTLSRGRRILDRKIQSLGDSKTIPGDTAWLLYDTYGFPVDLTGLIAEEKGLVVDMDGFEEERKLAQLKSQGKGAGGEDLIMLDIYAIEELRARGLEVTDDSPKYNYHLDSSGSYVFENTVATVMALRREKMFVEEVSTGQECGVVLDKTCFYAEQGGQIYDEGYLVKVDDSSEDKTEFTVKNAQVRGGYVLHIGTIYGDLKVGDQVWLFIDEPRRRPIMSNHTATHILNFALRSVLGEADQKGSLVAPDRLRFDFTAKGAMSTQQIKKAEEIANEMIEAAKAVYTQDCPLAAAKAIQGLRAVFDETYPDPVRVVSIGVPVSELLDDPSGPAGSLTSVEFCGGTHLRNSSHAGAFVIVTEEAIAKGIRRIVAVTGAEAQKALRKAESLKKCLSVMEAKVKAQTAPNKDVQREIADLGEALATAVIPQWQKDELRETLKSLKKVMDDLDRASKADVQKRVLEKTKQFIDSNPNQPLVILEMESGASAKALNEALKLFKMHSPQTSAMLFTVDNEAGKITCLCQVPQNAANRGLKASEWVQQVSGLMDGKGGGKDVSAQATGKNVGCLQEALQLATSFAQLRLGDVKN
# UniProt O00154: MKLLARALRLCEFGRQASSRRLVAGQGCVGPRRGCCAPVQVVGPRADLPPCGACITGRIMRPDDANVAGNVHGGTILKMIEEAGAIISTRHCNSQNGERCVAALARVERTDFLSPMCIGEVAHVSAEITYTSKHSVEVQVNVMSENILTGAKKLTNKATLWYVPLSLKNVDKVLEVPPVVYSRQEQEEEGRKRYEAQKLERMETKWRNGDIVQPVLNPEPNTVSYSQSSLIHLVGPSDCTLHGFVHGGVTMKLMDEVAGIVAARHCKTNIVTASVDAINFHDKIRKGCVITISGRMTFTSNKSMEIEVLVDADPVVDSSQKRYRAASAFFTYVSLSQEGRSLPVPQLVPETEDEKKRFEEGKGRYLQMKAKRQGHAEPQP
# UniProt P16219: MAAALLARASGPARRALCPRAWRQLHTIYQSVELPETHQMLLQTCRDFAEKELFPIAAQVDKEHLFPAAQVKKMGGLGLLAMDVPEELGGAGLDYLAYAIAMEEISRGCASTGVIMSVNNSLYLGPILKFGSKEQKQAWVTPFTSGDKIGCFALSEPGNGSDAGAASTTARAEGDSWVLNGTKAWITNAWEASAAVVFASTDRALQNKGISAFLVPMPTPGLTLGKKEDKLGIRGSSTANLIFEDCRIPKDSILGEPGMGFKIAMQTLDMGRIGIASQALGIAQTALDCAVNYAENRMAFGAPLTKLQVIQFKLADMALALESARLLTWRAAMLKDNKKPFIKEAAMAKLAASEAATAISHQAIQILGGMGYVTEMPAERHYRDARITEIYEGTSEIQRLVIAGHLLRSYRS
# UniProt Q9NUJ1: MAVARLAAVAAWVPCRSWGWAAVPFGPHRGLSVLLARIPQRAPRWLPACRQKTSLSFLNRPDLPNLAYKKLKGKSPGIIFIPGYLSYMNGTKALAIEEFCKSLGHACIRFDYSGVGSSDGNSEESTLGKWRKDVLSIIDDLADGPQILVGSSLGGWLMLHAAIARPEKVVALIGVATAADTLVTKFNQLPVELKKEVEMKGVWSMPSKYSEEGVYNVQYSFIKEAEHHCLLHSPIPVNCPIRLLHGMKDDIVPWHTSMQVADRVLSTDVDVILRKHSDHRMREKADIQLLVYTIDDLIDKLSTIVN
# UniProt O14734: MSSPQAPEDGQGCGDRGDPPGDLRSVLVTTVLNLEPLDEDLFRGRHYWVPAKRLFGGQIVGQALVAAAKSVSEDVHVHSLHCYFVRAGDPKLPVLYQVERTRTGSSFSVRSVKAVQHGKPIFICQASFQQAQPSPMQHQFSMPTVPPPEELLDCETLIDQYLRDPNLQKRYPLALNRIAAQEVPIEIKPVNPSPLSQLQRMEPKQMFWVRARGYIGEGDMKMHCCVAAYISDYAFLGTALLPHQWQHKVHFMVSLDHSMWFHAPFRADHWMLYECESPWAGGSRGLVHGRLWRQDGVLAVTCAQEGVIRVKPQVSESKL
# UniProt P00519, whole entry, looked up: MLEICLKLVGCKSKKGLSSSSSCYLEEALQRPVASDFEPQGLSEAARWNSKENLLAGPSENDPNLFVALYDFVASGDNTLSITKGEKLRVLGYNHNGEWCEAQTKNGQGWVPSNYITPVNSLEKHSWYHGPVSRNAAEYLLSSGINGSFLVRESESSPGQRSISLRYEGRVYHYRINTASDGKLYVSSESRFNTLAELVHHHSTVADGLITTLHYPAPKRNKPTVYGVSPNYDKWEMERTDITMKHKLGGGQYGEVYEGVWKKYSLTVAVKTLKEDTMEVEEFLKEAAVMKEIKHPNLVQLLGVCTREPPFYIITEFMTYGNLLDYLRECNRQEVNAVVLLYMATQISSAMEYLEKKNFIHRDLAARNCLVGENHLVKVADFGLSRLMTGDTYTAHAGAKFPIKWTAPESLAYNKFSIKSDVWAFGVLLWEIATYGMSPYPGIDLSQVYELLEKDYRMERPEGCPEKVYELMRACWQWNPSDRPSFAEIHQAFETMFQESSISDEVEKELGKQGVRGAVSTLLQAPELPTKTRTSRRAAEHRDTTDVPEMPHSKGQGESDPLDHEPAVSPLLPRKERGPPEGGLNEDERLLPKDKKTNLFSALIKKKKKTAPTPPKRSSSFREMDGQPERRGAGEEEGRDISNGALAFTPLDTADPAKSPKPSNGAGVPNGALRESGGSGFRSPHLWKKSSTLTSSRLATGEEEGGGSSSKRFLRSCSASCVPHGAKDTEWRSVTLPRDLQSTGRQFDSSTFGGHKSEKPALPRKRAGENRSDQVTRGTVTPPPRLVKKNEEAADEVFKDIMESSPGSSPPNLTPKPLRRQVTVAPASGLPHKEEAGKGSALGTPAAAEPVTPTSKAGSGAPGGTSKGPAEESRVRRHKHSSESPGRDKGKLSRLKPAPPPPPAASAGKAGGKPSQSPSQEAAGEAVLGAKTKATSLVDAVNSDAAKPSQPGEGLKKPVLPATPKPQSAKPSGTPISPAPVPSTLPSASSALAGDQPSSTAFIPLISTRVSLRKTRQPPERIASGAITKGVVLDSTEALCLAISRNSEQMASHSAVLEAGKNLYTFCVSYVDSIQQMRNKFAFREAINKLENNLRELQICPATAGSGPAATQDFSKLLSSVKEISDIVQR
# UniProt P09110: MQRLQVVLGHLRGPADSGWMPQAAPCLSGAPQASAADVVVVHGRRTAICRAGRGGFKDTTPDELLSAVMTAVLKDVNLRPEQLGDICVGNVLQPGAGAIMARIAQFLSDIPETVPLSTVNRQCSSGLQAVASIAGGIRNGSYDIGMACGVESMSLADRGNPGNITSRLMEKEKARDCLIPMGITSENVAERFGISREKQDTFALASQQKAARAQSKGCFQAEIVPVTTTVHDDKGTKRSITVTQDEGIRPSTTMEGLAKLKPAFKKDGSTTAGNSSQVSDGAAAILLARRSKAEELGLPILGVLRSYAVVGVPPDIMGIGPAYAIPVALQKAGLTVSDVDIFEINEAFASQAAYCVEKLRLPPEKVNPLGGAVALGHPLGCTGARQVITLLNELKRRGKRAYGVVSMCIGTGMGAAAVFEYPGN
# UniProt Q96GS6: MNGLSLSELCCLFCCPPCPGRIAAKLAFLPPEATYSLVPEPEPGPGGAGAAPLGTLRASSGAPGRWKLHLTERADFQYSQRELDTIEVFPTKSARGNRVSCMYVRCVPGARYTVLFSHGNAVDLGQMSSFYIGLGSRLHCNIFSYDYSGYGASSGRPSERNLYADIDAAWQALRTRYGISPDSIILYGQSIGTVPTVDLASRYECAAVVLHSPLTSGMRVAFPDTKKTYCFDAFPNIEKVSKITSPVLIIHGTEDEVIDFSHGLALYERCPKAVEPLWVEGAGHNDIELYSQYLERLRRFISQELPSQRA
# UniProt Q9H3P7: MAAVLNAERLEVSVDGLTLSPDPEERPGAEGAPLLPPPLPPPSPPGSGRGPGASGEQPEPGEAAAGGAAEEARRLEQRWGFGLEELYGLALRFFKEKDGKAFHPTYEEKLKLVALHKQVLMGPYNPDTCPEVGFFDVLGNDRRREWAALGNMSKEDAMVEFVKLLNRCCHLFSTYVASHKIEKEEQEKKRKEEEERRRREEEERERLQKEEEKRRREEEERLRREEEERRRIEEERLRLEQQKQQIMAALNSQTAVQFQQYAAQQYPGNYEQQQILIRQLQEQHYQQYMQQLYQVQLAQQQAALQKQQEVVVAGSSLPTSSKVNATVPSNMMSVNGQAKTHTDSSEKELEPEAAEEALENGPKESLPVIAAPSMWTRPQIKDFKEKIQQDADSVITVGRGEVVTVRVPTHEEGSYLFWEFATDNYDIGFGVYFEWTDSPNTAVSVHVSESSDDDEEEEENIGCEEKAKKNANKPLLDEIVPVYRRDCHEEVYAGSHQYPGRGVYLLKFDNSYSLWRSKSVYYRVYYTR
# UniProt O95870: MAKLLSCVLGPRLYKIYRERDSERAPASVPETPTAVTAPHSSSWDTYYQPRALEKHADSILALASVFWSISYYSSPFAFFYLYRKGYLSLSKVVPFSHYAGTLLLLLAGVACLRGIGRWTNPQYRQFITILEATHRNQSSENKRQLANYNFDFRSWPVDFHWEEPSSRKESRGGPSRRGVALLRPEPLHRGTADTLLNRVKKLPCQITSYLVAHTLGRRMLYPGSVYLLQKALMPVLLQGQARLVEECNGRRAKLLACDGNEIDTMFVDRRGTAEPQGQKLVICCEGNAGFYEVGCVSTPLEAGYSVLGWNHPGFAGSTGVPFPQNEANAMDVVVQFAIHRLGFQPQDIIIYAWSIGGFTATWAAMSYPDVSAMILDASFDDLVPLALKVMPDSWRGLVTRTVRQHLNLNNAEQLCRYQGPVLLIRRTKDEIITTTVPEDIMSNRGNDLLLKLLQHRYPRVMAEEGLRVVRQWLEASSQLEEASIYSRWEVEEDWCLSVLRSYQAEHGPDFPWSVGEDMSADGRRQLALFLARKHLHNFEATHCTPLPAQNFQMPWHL
# Compound: Cc1cc(ccc1-c1ccccc1)C(=O)N1CCCN(CC1)C(=O)CCl [compound 10]
# Assay: probe-labelled cysteine peptide fold change vs DMSO (competition) (log2 fold change); higher = less target engagement (more negative = stronger competition)
# Details: THP-1, incubation time: 4 h
# 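Also: competitive profiling in live THP-1 cells: cysteine peptides tagged with an iodoacetamide desthiobiotin (IA-DTB) probe, intensity after compound treatment relative to DMSO-treated cells.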
Target,probe-labelled cysteine peptide fold change (10 µM),probe-labelled cysteine peptide fold change (50 µM)
ACO2_Q99798_332_DHLVPDPGCHYDQLIEINLSELK (UniProt Q99798),-0.197,0.344
ACADSB_P45954_261_ASSTCPLTFENVK (UniProt P45954),-0.238,0.0954
ACBD6_Q9BR61_200_ALLHWACDR (UniProt Q9BR61),0.0836,-0.0992
AARS_P49588_525_MFVEEVSTGQECGVVLDK (UniProt P49588),-0.239,0.000348
ACBD6_Q9BR61_166_NIFDYCR (UniProt Q9BR61),0.0331,-0.103
ACOT7_O00154_100_CVAALAR (UniProt O00154),-0.125,-0.0977
ACLY_P53396_229_VDATADYICK (UniProt P53396),0.116,0.0189
ACADS_P16219_246_GSSTANLIFEDCR (UniProt P16219),-0.0747,0.0499
ACOT11_Q8WXI4_498_RKPCDNGDPYVIALR (UniProt Q8WXI4),-0.0607,-0.24
ABI1_Q8IZP0_488_NDDGWYEGVCNR (UniProt Q8IZP0),0.0516,0.311
ACOT4_Q8N9L9_121_LLCQAQHER (UniProt Q8N9L9),-0.137,-0.343
ABHD10_Q9NUJ1_107_SLGHACIR (UniProt Q9NUJ1),0.189,0.189
ACACA_Q13085_1769_VSALNSVHCEHVEDEGESR (UniProt Q13085),-0.0711,0.0398
ACO2_Q99798_448+451_DLGGIVLANACGPCIGQWDRK (UniProt Q99798),-0.143,-0.611
ACOT8_O14734_275_ADHWMLYECESPWAGGSR (UniProt O14734),0.15,0.0534
ABL1_P00519-2_39_HGGPHCNVFVEHEALQRPVASDFEPQGLSEAAR (UniProt P00519),-0.213,-0.213
ABCC1_P33527_1479_TQFEDCTVLTIAHR (UniProt P33527),0.0293,0.0229
AACS_Q86V21_493_AVWGESGELVCTKPIPCQPTHFWNDENGNK (UniProt Q86V21),-0.0997,-0.0186
ACAA1_P09110_218_GCFQAEIVPVTTTVHDDK (UniProt P09110),-0.0407,0.0209

# A stretch of the results above, as a working copy:
Target,probe-labelled cysteine peptide fold change (10 µM),probe-labelled cysteine peptide fold change (50 µM)
ACOT8_O14734_275_ADHWMLYECESPWAGGSR (UniProt O14734),0.15,0.0534
ABL1_P00519-2_39_HGGPHCNVFVEHEALQRPVASDFEPQGLSEAAR (UniProt P00519),-0.213,-0.213

# The list goes on:

Target,probe-labelled cysteine peptide fold change (10 µM),probe-labelled cysteine peptide fold change (50 µM)
AARS_P49588_901_ITCLCQVPQNAANR (UniProt P49588),0.173,-0.279
AAAS_Q9NRG9_444_NSPVFELLPCGIIQGEPGAQPQLITFHPSFNK (UniProt Q9NRG9),0.143,0.272
ABCA2_Q9BZC7_1542_LPSGVGATCVLK (UniProt Q9BZC7),-0.226,-0.255
ACAA1_P09110_148_NGSYDIGMACGVESMSLADR (UniProt P09110),-0.314,-0.432
ABCF3_Q9NUQ8_522_ICVVGENGAGK (UniProt Q9NUQ8),-0.14,0.0306
ABL2_P42684_415_NCLVGENHVVK (UniProt P42684),0.00196,0.0992
ABHD17A_Q96GS6_205_YECAAVVLHSPLTSGMR (UniProt Q96GS6),0.00182,0.0905
ACBD3_Q9H3P7_129_QVLMGPYNPDTCPEVGFFDVLGNDRR (UniProt Q9H3P7),0.105,-0.128
ACBD3_Q9H3P7_129_QVLMGPYNPDTCPEVGFFDVLGNDR (UniProt Q9H3P7),0.23,0.288
AAMP_Q13685_130_LSDGELLFECAGHK (UniProt Q13685),0.0672,0.0581
ACAA2_P42765_128_EAEVVLCGGTESMSQAPYCVR (UniProt P42765),-0.368,-0.323
AARSD1_Q9BTE6_266_CGAEDHVEAVK (UniProt Q9BTE6),-0.0537,-0.212
A2M_P01023_299_FSGQLNSHGCFYQQVK (UniProt P01023),0.0748,0.244
ACACA_Q13085_1769_RVSALNSVHCEHVEDEGESR (UniProt Q13085),0.251,0.453
ABCF1_Q8NE71_655_ICIVGPNGVGK (UniProt Q8NE71),0.0275,0.233
ABHD16A_O95870_248_LVEECNGR (UniProt O95870),0.0158,-0.11
ABHD10_Q9NUJ1_229+239_EAEHHCLLHSPIPVNCPIR (UniProt Q9NUJ1),0.00339,0.027
AACS_Q86V21_299_CMVHSAGGTLIQHLK (UniProt Q86V21),-0.266,0.176
ACAP2_Q15057_691_GPLHHATVLGHTGQVCLFLK (UniProt Q15057),-0.107,-1.08

# — the supplement of paper PMC12067093, “Discovery and optimisation of a covalent ligand for TRIM25 and its application to targeted protein ubiquitination” (Chemical Science, 2025)
